# Laboratory results published in PMC3271077.
# Target: T1, HopF2-HA (P. syringae) (UniProt Q88A90)
# T1 sequence: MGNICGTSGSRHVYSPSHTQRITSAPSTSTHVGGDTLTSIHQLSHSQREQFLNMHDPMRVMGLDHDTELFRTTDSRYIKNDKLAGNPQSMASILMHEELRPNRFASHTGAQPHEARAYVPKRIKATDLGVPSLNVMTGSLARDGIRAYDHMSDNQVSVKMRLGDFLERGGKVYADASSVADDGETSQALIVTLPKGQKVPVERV
# Assay: co-IP; taxol- and GTP-treated clarified extracts of transgenic Arabidopsis leaves, anti-HA agarose beads overnight at 4°C, washes with extraction buffer and RIPA buffer, blots with HA and tubulin antibodies, bands quantified by ImageJ
substance,measurement,value
Arabidopsis tubulin (complex),binding,no binding

# These are yes or no findings as the source states them, for the method shown. In cells and extracts the contact can be indirect. Sequences can lack the tags named with a protein.
